# ± gives the standard deviation of the averaged measurements. The list shows a part of the results, in another mix than the full data.
# Assays:
# Assay in all cases: NP40-soluble protein abundance relative to vehicle (solubility fold change) (ratio); higher = more soluble protein in presence of AMP-PNP
# TP53RK = molecular target: T1, TP53RK (UniProt Q96S44)
# T1 sequence (whole entry): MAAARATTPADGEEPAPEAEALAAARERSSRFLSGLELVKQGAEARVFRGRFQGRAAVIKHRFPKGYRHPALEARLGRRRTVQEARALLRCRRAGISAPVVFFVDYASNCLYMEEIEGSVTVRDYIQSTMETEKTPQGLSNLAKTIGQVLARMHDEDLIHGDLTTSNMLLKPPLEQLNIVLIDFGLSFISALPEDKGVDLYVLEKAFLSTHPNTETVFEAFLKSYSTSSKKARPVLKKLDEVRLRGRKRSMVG
# Procedure, shortened: (§1)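 Jurkat crude lysate prepared with a Dounce homogeniser was treated at eight concentrations spanning 0.1 to 10 mM, 10 min at room temperature then 3 min at 37 °C. Solubilisation with 0.8% NP40 and benzonase and ultracentrifugation preceded TMT labelling of the supernatant for LC-MS/MS. Fold change against the detergent-processed vehicle was determined per replicate from vsn-normalised intensities, across three independent experiments.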
# TTC1 = molecular target: T2, TTC1 (UniProt Q99614)
# T2 sequence (whole entry): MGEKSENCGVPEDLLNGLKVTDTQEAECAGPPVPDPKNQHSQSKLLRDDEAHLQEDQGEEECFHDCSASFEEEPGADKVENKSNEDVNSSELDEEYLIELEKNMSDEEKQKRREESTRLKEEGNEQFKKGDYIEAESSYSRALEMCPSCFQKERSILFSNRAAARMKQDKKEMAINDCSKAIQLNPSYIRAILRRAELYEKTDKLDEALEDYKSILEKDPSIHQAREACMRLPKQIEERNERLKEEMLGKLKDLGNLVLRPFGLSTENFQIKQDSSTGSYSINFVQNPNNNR
# Procedure, shortened: as §1
# TXNDC17 = molecular target: T3, TXNDC17 (UniProt Q9BRA2)
# T3 sequence (whole entry): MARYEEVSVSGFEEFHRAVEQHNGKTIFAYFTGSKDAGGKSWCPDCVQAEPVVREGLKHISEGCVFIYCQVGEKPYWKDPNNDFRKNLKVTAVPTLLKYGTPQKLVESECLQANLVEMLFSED
# Procedure, shortened: as §1
# UTP14A = molecular target: T4, UTP14A (UniProt Q9BVJ6)
# T4 sequence (whole entry): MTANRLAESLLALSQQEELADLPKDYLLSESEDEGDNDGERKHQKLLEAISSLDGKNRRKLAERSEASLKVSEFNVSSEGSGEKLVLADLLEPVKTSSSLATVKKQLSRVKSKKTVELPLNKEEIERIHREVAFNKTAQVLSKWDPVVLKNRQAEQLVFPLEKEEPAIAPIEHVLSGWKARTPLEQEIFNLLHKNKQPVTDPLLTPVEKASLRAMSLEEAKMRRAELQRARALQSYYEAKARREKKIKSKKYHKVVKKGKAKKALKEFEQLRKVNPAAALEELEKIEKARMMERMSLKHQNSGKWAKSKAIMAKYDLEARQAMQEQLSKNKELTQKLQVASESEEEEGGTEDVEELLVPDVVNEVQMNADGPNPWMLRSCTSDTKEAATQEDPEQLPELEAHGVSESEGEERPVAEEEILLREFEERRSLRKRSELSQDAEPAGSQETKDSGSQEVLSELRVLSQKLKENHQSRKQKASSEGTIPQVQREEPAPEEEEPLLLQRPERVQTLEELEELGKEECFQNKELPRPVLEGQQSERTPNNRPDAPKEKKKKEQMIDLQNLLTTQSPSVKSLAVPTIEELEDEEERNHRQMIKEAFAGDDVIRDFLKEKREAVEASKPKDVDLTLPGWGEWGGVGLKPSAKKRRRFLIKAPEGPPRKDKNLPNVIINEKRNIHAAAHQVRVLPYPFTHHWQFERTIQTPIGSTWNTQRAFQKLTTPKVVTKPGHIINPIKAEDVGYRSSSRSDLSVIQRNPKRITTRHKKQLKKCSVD
# Procedure, shortened: as §1
# UniProt Q96RF0-2 = molecular target: T5, UniProt Q96RF0-2
# T5 sequence (whole entry): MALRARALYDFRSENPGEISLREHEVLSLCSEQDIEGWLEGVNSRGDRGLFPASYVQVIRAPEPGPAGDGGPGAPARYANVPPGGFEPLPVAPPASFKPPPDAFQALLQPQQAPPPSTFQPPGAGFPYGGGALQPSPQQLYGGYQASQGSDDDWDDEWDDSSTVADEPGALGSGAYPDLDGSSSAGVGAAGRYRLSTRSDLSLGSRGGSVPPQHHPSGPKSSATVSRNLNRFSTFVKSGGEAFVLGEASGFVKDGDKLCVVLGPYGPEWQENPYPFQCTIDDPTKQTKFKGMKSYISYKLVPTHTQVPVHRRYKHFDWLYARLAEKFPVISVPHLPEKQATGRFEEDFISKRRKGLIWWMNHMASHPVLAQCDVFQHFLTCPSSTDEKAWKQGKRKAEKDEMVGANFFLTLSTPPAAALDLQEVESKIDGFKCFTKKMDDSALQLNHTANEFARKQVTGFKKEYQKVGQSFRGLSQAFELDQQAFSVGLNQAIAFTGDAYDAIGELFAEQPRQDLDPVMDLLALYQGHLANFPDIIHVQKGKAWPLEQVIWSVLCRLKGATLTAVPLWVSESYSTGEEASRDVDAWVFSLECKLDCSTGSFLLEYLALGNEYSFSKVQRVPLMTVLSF
# Procedure, shortened: as §1
structure (smiles),measurement,setting,value
Nc1ncnc2c1ncn2[C@@H]1O[C@H](COP(=O)(O)OP(=O)(O)NP(=O)(O)O)[C@@H](O)[C@H]1O [adenylyl imidodiphosphate],NP40-soluble protein abundance,TP53RK; concentration: 4mM,0.961 ± 0.044
same,NP40-soluble protein abundance,TP53RK; concentration: 6mM,1.03 ± 0.072
same,NP40-soluble protein abundance,TP53RK; concentration: 8mM,0.999 ± 0.026
same,NP40-soluble protein abundance,TP53RK; concentration: 10mM,1 ± 0.064
same,NP40-soluble protein abundance,TTC1; concentration: 1mM,1.02 ± 0.022
same,NP40-soluble protein abundance,TTC1; concentration: 2mM,1 ± 0.031
same,NP40-soluble protein abundance,TTC1; concentration: 4mM,0.983 ± 0.025
same,NP40-soluble protein abundance,TTC1; concentration: 6mM,0.954 ± 0.028
same,NP40-soluble protein abundance,TTC1; concentration: 8mM,0.952 ± 0.028
same,NP40-soluble protein abundance,TTC1; concentration: 10mM,0.929 ± 0.022
same,NP40-soluble protein abundance,TXNDC17; concentration: 1mM,1.03 ± 0.075
same,NP40-soluble protein abundance,TXNDC17; concentration: 2mM,0.984 ± 0.031
same,NP40-soluble protein abundance,TXNDC17; concentration: 4mM,1.01 ± 0.074
same,NP40-soluble protein abundance,TXNDC17; concentration: 6mM,0.981 ± 0.031
same,NP40-soluble protein abundance,TXNDC17; concentration: 8mM,0.98 ± 0.055
same,NP40-soluble protein abundance,TXNDC17; concentration: 10mM,0.96 ± 0.045
same,NP40-soluble protein abundance,UTP14A; concentration: 1mM,1.07 ± 0.01
same,NP40-soluble protein abundance,UTP14A; concentration: 2mM,1.12 ± 0.053
same,NP40-soluble protein abundance,UTP14A; concentration: 4mM,1.17 ± 0.045
same,NP40-soluble protein abundance,UTP14A; concentration: 6mM,1.19 ± 0.021
same,NP40-soluble protein abundance,UTP14A; concentration: 8mM,1.21 ± 0.033
same,NP40-soluble protein abundance,UTP14A; concentration: 10mM,1.28 ± 0.031
same,NP40-soluble protein abundance,UniProt Q96RF0-2; concentration: 1mM,1.0202 ± 0.00095
same,NP40-soluble protein abundance,UniProt Q96RF0-2; concentration: 2mM,1.013 ± 0.0022
same,NP40-soluble protein abundance,UniProt Q96RF0-2; concentration: 4mM,1.01 ± 0.025

# A stretch taken from the entries so far, for reference:
structure (smiles),measurement,setting,value
Nc1ncnc2c1ncn2[C@@H]1O[C@H](COP(=O)(O)OP(=O)(O)NP(=O)(O)O)[C@@H](O)[C@H]1O [adenylyl imidodiphosphate],NP40-soluble protein abundance,TXNDC17; concentration: 1mM,1.03 ± 0.075
same,NP40-soluble protein abundance,TXNDC17; concentration: 2mM,0.984 ± 0.031

# Source: the supplement of paper PMC6411743
